{
  "source": "PubChem BioAssay AID1347075",
  "about": "(National Center for Advancing Translational Sciences (NCATS), 2019)",
  "note": "Hit rate of the full screen: of about 400,000 compounds, about 5,500 (1.4%) were called active. The shares of active, inactive and inconclusive entries below differ from those in the screen. Calls follow the shape of the dose curve; as a rule, active = well fitted cell-killing curve with a large enough effect; inconclusive = small, poorly fitted or top-dose-only effect, or effect the other way; inactive = flat fitted curve, though single readings scatter. Where the call is inconclusive, the potency comes from a doubtful curve fit. % is scaled to controls: 0 for no effect and ±100 for the full control effect; potency is read from the fitted curve at half-maximal effect.",
  "data": [
    {"test": "qHTS assay for MDR1-selective chemotherapeutics: Primary screen using the parental adenocarcinoma cell KB-3-1; also: nearly all actives have a fitted effect of over 60% in size", "settings": "KB-3-1 viability, CellTiter-Glo ATP luminescence, 72 h; activity change, negative = cytotoxic: at 46.1 µM (top of the series)", "method_in_brief": "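Screening of KB-3-1 cells (DMEM, 10% FBS, phenol-red free) ran from lowest to highest compound concentration; after 72 h at 37 °C viability was read luminescently and curves fitted.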", "values": [
      {"smiles": "Cc1cc(/C=N/n2cnnc2)c(C)n1-c1ccc(OCc2ccccc2F)cc1", "Potency": "inconclusive: 29.1 µM [cytotoxic, single point]"},
      {"smiles": "O=C(NCc1ccccn1)[C@@H]1CCCN1C(=O)[C@@H]1CCCN1", "activity change, negative = cytotoxic": "inconclusive: 4%"},
      {"smiles": "Cc1cccc(N(CC(=O)N2CCCCCC2)S(C)(=O)=O)c1", "activity change, negative = cytotoxic": "inactive: 9.32%"},
      {"smiles": "CCc1cccc(CC)c1NC(=S)NCCc1c(C)[nH]c2ccc(C)cc12", "Potency": "active: 6.51 µM"},
      {"smiles": "CC(CC(=O)N1CCN(c2ccccc2)CC1)S(=O)(=O)c1ccc2c(c1)NC(=O)CO2", "note": "(centres undefined)", "Potency": "inconclusive: 32.6 µM [cytotoxic, single point]"},
      {"smiles": "O=C1NC[C@H](c2ccccc2)N(CCc2cccc(F)c2)C1=O", "activity change, negative = cytotoxic": "inactive: -10.3%"},
      {"smiles": "CCOC(=O)Cc1csc(NC(=O)CCCCCN2C(=O)c3ccccc3C2=O)n1", "activity change, negative = cytotoxic": "inactive: -2.81%"},
      {"smiles": "O=C(NCCc1csc(-c2ccc(F)cc2)n1)c1cccc(F)c1", "Potency": "inconclusive: 20.6 µM [cytotoxic, partial curve, poor fit]"},
      {"smiles": "CCCS(=O)(=O)NC(=O)C1(C)CCN(C(=O)c2cccc(OC(F)(F)F)c2)C1", "note": "(centres undefined)", "activity change, negative = cytotoxic": "inactive: -0.0044%"},
      {"smiles": "Cc1cc(OCCCN2CCC(C(O)(c3ccccc3)c3ccccc3)CC2)ccc1Br", "Potency": "inconclusive: 29.1 µM [cytotoxic, single point]"},
      {"smiles": "O=c1nc2sc3ccccc3n2c(=O)n1-c1ccc(Cl)cc1", "Potency": "inconclusive: 29.1 µM [cytotoxic, single point]"},
      {"smiles": "CCn1c2ccccc2c2cc([N+](=O)[O-])ccc21", "Potency": "inconclusive: 18.4 µM [cytotoxic, single point]"},
      {"smiles": "CC1(/[N+]([O-])=C\\c2ccccc2F)CCCCC1=O", "note": "(centres undefined)", "Potency": "inconclusive: 20.6 µM [rising, single point]"},
      {"smiles": "O=C(/C=C/c1cccc([N+](=O)[O-])c1)N1CCN(c2ccccn2)CC1", "Potency": "inconclusive: 29.1 µM [rising, single point]"},
      {"smiles": "CC1CCN(c2ccc(S(=O)(=O)N3CCC(C)CC3)cc2N)CC1", "Potency": "inconclusive: 4.61 µM [cytotoxic, full curve, poor fit]"},
      {"smiles": "CC(C)Oc1ccc(CNC(=O)C2CCN(Cc3cc4ccccc4n3Cc3ccccc3)CC2)cc1", "Potency": "inconclusive: 18.4 µM [cytotoxic, single point]"},
      {"smiles": "CN(c1ccccc1)c1ccc(/C=C/[N+](=O)[O-])cc1", "Potency": "inconclusive: 20.6 µM [cytotoxic, single point]"},
      {"smiles": "Cc1ccnc(NC(=S)N2CCN(c3cccc(N(C)C)c3)CC2)c1", "activity change, negative = cytotoxic": "inactive: 7.06%"},
      {"smiles": "CCC1(CC)C(=O)NC(=S)N=C1N", "activity change, negative = cytotoxic": "inactive: 0.436%"},
      {"smiles": "COc1ccc(N2CCN(C(=O)CSc3nnc4n3C(C)(C)Cc3ccccc3-4)CC2)cc1", "Potency": "inconclusive: 25.9 µM [cytotoxic, partial curve, poor fit]"},
      {"smiles": "CC(=O)c1cc2c(cc1NC(=O)CN(C)S(=O)(=O)c1cccs1)OCO2", "Potency": "inconclusive: 2.91 µM [rising, partial curve]"},
      {"smiles": "COc1ccccc1C(=O)Nc1ccc2c(c1)nc(CCNC(=O)c1ccccc1)n2C", "Potency": "inconclusive: 6.51 µM [cytotoxic, partial curve, poor fit]"},
      {"smiles": "O=C(C1=C[C@@H](c2ccc(C(F)(F)F)cc2)C[C@@H](OCc2ccc(CO)cc2)O1)N1CCN(Cc2ccccc2)CC1", "Potency": "inconclusive: 29.1 µM [cytotoxic, single point]"},
      {"smiles": "CC(C)Oc1ccc(CNC(=O)c2ccc(NC(=O)N3CC(C)Sc4ccccc43)cc2)cc1", "note": "(centres undefined)", "Potency": "inconclusive: 29.1 µM [cytotoxic, single point]"},
      {"smiles": "CC(C)(CO)NC(=O)C(Cc1ccccc1)N1C(=O)c2ccccc2C1=O", "note": "(centres undefined)", "Potency": "inconclusive: 0.461 µM [rising, full curve]"},
      {"smiles": "Cc1ccc(N2CC(C(=O)Nc3ccccc3N3CCCC3)CC2=O)cc1", "note": "(centres undefined)", "Potency": "inconclusive: 23.1 µM [cytotoxic, single point]"},
      {"smiles": "CCCc1cc(=O)n2[nH]cc(-c3ccc(Cl)cc3)c2n1", "Potency": "active: 16.4 µM"},
      {"smiles": "O=C1/C(=C/c2ccccc2)SC(=S)N1CCCC(=O)N1CCCCC1CCO", "note": "(centres undefined)", "Potency": "inconclusive: 23.1 µM [cytotoxic, single point]"},
      {"smiles": "CN1C(=O)Nc2cccc3cccc1c23", "Potency": "active: 1.03 µM"},
      {"smiles": "CCCn1c(C2CCCN2c2nc(-c3ccc(C)cc3)cs2)nc2ccccc21", "note": "(centres undefined)", "Potency": "active: 18.4 µM"},
      {"smiles": "CCOc1ccc(NC(=O)CC(=O)Nc2ccc(OCC)cc2)cc1", "activity change, negative = cytotoxic": "inactive: -3.65%"},
      {"smiles": "NC(=O)C1CCN(c2nccc(-c3ccc4c(c3)OCCO4)n2)CC1", "Potency": "active: 9.2 µM"},
      {"smiles": "CC(C)c1ccc(OCC(O)CN2CCN(c3ccccc3)CC2)cc1", "note": "(centres undefined)", "Potency": "inactive"},
      {"smiles": "CC(C)=CCN1CCN(Cc2ccc(Sc3nncn3C)o2)CC1CCO", "note": "(centres undefined)", "activity change, negative = cytotoxic": "inactive: -4.26%"},
      {"smiles": "CCN1C(=O)[C@H]2[C@@H](c3ccc(-c4ccc(F)cc4)cc3)N3CCCC[C@@]3(C(=O)OC)[C@H]2C1=O", "Potency": "inconclusive: 29.1 µM [cytotoxic, single point]"},
      {"smiles": "CCOc1ccccc1CNC(=O)C1CCN(S(=O)(=O)c2ccc3[nH]c(=O)ccc3c2)CC1", "activity change, negative = cytotoxic": "inactive: 25.5%"},
      {"smiles": "Cc1ccc2oc(=O)c3cc(C(=O)NCCCN4CCc5ccccc5C4)sc3c2c1", "activity change, negative = cytotoxic": "inactive: 11%"},
      {"smiles": "Cc1ccc(-c2ccc3c(c2)O[C@H](CN(C)C(=O)Nc2ccc(C(F)(F)F)cc2)[C@H](C)CN([C@H](C)CO)S3(=O)=O)cc1", "Potency": "inconclusive: 29.1 µM [cytotoxic, single point]"},
      {"smiles": "CCOC(=O)COn1c(=O)c(-c2ccc(Cl)cc2)[n+]([O-])c2ccccc21", "Potency": "inconclusive: 23.1 µM [cytotoxic, partial curve, poor fit]"},
      {"smiles": "Cc1nc(NCC2CCCO2)c2nnn(Cc3c(F)cccc3Cl)c2n1", "note": "(centres undefined)", "activity change, negative = cytotoxic": "inactive: -7.38%"},
      {"smiles": "O=C(NCCc1ccccc1)C(=O)c1c[nH]c2ccccc12", "activity change, negative = cytotoxic": "inactive: -1.48%"},
      {"smiles": "COc1ccc(C(=O)NC(=S)NNC(=O)Cc2cccs2)cc1", "Potency": "inconclusive: 23.1 µM [cytotoxic, single point]"},
      {"smiles": "COc1ccc2ccccc2c1/C=N/NC(=O)c1sc(N)c(C#N)c1C", "Potency": "inconclusive: 14.6 µM [rising, single point]"},
      {"smiles": "CC(c1ccccc1F)n1cc(C(=O)NCCc2ccco2)nn1", "note": "(centres undefined)", "Potency": "inconclusive: 29.1 µM [cytotoxic, single point]"},
      {"smiles": "Cc1ccc(-n2c(SCc3ccc(C#N)cc3)nnc2-c2ccccn2)cc1", "activity change, negative = cytotoxic": "inactive: 5.23%"},
      {"smiles": "O=C(CN1CCC(C(=O)c2ccc3c(c2)OCCO3)CC1)NC1CCCC1", "Potency": "inconclusive: 29.1 µM [cytotoxic, single point]"},
      {"smiles": "CCC(C)Sc1cccc(-c2nc3cc(C)ccn3c2NC2CCCCC2)c1", "note": "(centres undefined)", "Potency": "inconclusive: 23.1 µM [cytotoxic, single point]"},
      {"smiles": "Cc1ccc(NC(=O)c2nc(S(=O)(=O)Cc3ccccc3F)ncc2Cl)cc1C", "Potency": "inconclusive: 13 µM [cytotoxic, partial curve, poor fit]"},
      {"smiles": "Cc1csc(NC(=O)C2CCN(S(=O)(=O)c3ccccc3)CC2)n1", "Potency": "inconclusive: 20.6 µM [cytotoxic, single point]"},
      {"smiles": "Cc1cccc(C2C=C(c3ccc(C)c(C)c3)Nc3nnnn32)c1", "note": "(centres undefined)", "Potency": "active: 20.6 µM"},
      {"smiles": "COc1ccc(-c2csc(Nc3ccc(O)cc3)n2)cc1", "Potency": "inconclusive: 29.1 µM [cytotoxic, single point]"},
      {"smiles": "CCOC(=O)Cn1c(=NC(=O)CN2C(=O)CCC2=O)sc2cc(S(N)(=O)=O)ccc21", "Potency": "inconclusive: 29.1 µM [rising, single point]"},
      {"smiles": "COC(=O)C1(C(=O)OC)C[C@H](c2ccc(OC)cc2)N(Cc2ccccc2OC)[C@@H]1c1ccc(OC)cc1", "Potency": "inconclusive: 13 µM [cytotoxic, partial curve]"},
      {"smiles": "O=C(/C=C/c1cccc(C(F)(F)F)c1)Nc1cccc(C(F)(F)F)c1", "Potency": "inconclusive: 18.4 µM [cytotoxic, single point]"},
      {"smiles": "COCCNC(=O)c1cccc(OC2CCN(Cc3cccc(C(C)=O)c3)CC2)c1", "Potency": "inconclusive: 20.6 µM [cytotoxic, single point]"},
      {"smiles": "Cn1c(-c2ccc3c(c2)OCO3)cnc1NCc1cccc(Cl)c1", "activity change, negative = cytotoxic": "inactive: -13%"},
      {"smiles": "CCCCN1C(=O)C(CC(=O)NC2CCCCC2)CC(C(=O)N(C(C)C)C(C)C)=C1C", "note": "(centres undefined)", "activity change, negative = cytotoxic": "inactive: -7.86%"},
      {"smiles": "O=C(Nc1ccccc1F)Nc1ccc([N+](=O)[O-])cc1Cl", "Potency": "inconclusive: 20.6 µM [cytotoxic, single point]"},
      {"smiles": "O=C(Nc1cccnc1)c1ccc2nc(-c3ccccc3)c(-c3ccccc3)nc2c1", "activity change, negative = cytotoxic": "inactive: -3.16%"},
      {"smiles": "Cc1cc(C)c(S(=O)(=O)Nc2cccc(C(F)(F)F)c2)c(C)c1", "Potency": "inconclusive: 0.146 µM [cytotoxic, full curve]"},
      {"smiles": "COc1cc2c(-c3ccc4c(c3)OCO4)c(-c3ccsc3)oc(=O)c2cc1OC", "activity change, negative = cytotoxic": "inactive: -11.2%"},
      {"smiles": "Cc1ccc(C(=O)Nc2cc(C(C)C)c(O)c(C(C)C)c2)cc1", "Potency": "inconclusive: 18.4 µM [rising, single point]"},
      {"smiles": "COc1ccc(/C=N/NC(=O)c2cccc(Br)c2)cc1CSc1ccccn1", "Potency": "inconclusive: 20.6 µM [cytotoxic, single point]"},
      {"smiles": "O=C(N/N=C/c1cc(Cl)ccc1O)c1cccnc1", "Potency": "inconclusive: 16.4 µM [cytotoxic, partial curve, poor fit]"},
      {"smiles": "CCC(Cc1ccccc1)NC(=O)CN1C(=O)COc2ccc(S(=O)(=O)N3CCCCCC3)cc21", "note": "(centres undefined)", "activity change, negative = cytotoxic": "inactive: -21.1%"},
      {"smiles": "O=C(NCCc1ccccc1)c1cnc2n(c1=O)CCS2", "Potency": "inconclusive: 29.1 µM [rising, partial curve, poor fit]"},
      {"smiles": "O=C(OCc1nnc(-c2ccccc2)o1)c1cc(S(=O)(=O)N2CCOCC2)c(Cl)cc1Cl", "Potency": "inconclusive: 29.1 µM [cytotoxic, single point]"},
      {"smiles": "CN(C)C(=O)CSc1nc2ccc(C(=O)c3ccccc3)cc2[nH]1", "activity change, negative = cytotoxic": "inactive: 0.712%"},
      {"smiles": "CN(C)S(=O)(=O)c1cccc(NC(=O)c2ccc(OC(F)(F)F)cc2)c1", "Potency": "inconclusive: 20.6 µM [cytotoxic, single point]"}
    ]}
  ]
}
